Experimental data from article PMC10325903.
The comparison behind a weaker result is the experiment's own reference, which may not be listed here.

By UniProt entry, the sequences of proteins in these tests, tags left out. Residues count along the entry.
UniProt P31316, 167-305: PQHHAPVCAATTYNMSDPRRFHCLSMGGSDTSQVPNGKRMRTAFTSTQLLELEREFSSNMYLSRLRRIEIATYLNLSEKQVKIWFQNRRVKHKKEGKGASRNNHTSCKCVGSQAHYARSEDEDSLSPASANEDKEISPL
UniProt P40764, 137-229: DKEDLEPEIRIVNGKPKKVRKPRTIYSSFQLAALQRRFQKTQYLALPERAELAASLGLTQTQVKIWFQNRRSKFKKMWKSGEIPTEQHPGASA

How the values were obtained:
Gsx2 HD fragment = Gsx2 HD fragment (UniProt P31316); assay: EMSA; conditions: 100 and 400 nM protein, 34 nM IRDye700 probe, room temperature 20 min, 4% polyacrylamide gel 150 V 2 h, recombinant protein, label: 5' IRDye700 on bottom strand
Dlx2 HD fragment = Dlx2 HD fragment (UniProt P40764); assay: EMSA; conditions: 20 and 80 nM protein, 34 nM IRDye700 probe, room temperature 20 min, 4% polyacrylamide gel 150 V 2 h, recombinant protein, label: 5' IRDye700 on bottom strand

Q: Does “CCCCGTAATCGCGGCGTAATCCCGCTAGTGCGGGCGTGGCT (double strand) [Gsx1/2_RULE_2]” bind (Gsx2 HD fragment)?
A: binds more weakly

Q: Does “GGGGCAATTGCGGCTTATGGGGCTAGTGCGGGCGTGGCT (double strand) [Dlx2_RULE_1]” bind (Dlx2 HD fragment)?
A: binds more weakly

Q: Does “CCCGCAATTCGCGGTTATCCGGGTAGTGCGGGCGTGGCT (double strand) [Dlx2_RULE_2]” bind (Dlx2 HD fragment)?
A: binds more weakly

Q: Does “CGGCCTAATGCCCCGGTAATGCCCGTAGTGCGGGCGTGGCT (double strand) [Gsx1/2_RULE_1]” bind (Gsx2 HD fragment)?
A: binds more weakly
